Assay results: US10456465B2, “Compositions, kits, and methods for the diagnosis prognosis, monitoring, treatment and modulation of post-transplant lymphoproliferative disorders and hypoxia associated angiogenesis disorders using galectin-1” (Dana-Farber Cancer Institute, Inc., priority 2009, dated 2019)
Some entries repeat one wording, which the source may state once for all of them.

B1: 8B5: Gal1 monoclonal antibody; same heavy and lambda light chain sequence as 8F4 and 8G3 (antibody, V domains shown)
VH: EVQLQQSVAEFVRPGASVRLSCTASGFNIKNTYIHWVRQRPEQGLEWIGKIDPANGNTKYVPEFQGKATMTADTSSNTVYLHLSSLTSEDTAIYYCVDGYYGWYFAVWGTGTTVTVSS
VL: QAVVTQESALTTSPGETVTLTCRSSTGAVTTSNYANWVQEKPDHLFTGLIGATNNRAPGVPARFSGSLIGDKAVLTITGAQTEDEAIYFCALWYRNHFIFGSGTKVTVL
B2: 8F4: Gal1 monoclonal antibody; same heavy and lambda light chain sequence as 8B5 and 8G3 (antibody, V domains shown)
VH: B1 VH
VL: B1 VL
B3: 8G3: Gal1 monoclonal antibody; same heavy and lambda light chain sequence as 8B5 and 8F4 (antibody, V domains shown)
VH: B1 VH
VL: B1 VL
B4: 8F4F8G7: neutralizing murine anti-human Gal1 monoclonal antibody; hybridoma deposited under PTA-10535 (antibody, V domains shown)
VH: B1 VH
VL: B1 VL
B5: 8F4.F8.H2: anti-human Gal1 monoclonal antibody (antibody, V domains shown)
VH: B1 VH
VL: B1 VL
B6: 8G3.B1.G12: anti-human Gal1 monoclonal antibody (antibody, V domains shown)
VH: B1 VH
VL: B1 VL
B7: 8G3.B1.H8: anti-human Gal1 monoclonal antibody (antibody, V domains shown)
VH: B1 VH
VL: B1 VL
B8: 8B5.E6.2H3: anti-human Gal1 monoclonal antibody (antibody, V domains shown)
VH: B1 VH
VL: B1 VL
B9: 8B5.E6.H9: anti-human Gal1 monoclonal antibody (antibody, V domains shown)
VH: B1 VH
VL: B1 VL

System: human Gal1 (hGal1)
Assay: Epitope mapping with GST-tagged human Gal1 fragments
Type: binding
Settings: for Domain recognition: relative to carbohydrate-binding domain (CBD); for Mapping: GST-tagged hGal1 fragments recognized

| Molecule | Domain recognition | Mapping |
| --- | --- | --- |
| B1 | distal to the previously described carbohydrate-binding domain | – |
| B2 | distal to the previously described carbohydrate-binding domain | – |
| B3 | distal to the previously described carbohydrate-binding domain | – |
| B4 | Post-CBD | GST-F5; GST-F6; GST-F7 |
| B5 | Post-CBD | GST-F5; GST-F6; GST-F7 |
| B6 | Post-CBD | GST-F5; GST-F6; GST-F7 |
| B7 | Post-CBD | GST-F5; GST-F6; GST-F7 |
| B8 | Post-CBD | GST-F5; GST-F6; GST-F7 |
| B9 | Post-CBD | GST-F5; GST-F6; GST-F7 |
